One assay has as its target BAG6–V5 (UniProt P46379). As to the kind of experiment: co-IP; HeLaM cells co-transfected with the OPG–TASK85 variant and BAG6–V5 or SGTA–V5; 24 h later 1 mM DSP (cleavable cross-linker) or DMSO for 15 min at room temperature, quenched with 10 mM glycine; lysis in 10 mM Tris-HCl pH 7.4, 150 mM NaCl, 1 mM EDTA, 0.5% DDM; IP with anti-V5 or anti-opsin and Protein-A–Sepharose; western blot. For orientation: A western blot detects proteins with antibodies after separation by electrophoresis.

By UniProt entry, the sequences of proteins in these tests, tags left out.
UniProt P46379: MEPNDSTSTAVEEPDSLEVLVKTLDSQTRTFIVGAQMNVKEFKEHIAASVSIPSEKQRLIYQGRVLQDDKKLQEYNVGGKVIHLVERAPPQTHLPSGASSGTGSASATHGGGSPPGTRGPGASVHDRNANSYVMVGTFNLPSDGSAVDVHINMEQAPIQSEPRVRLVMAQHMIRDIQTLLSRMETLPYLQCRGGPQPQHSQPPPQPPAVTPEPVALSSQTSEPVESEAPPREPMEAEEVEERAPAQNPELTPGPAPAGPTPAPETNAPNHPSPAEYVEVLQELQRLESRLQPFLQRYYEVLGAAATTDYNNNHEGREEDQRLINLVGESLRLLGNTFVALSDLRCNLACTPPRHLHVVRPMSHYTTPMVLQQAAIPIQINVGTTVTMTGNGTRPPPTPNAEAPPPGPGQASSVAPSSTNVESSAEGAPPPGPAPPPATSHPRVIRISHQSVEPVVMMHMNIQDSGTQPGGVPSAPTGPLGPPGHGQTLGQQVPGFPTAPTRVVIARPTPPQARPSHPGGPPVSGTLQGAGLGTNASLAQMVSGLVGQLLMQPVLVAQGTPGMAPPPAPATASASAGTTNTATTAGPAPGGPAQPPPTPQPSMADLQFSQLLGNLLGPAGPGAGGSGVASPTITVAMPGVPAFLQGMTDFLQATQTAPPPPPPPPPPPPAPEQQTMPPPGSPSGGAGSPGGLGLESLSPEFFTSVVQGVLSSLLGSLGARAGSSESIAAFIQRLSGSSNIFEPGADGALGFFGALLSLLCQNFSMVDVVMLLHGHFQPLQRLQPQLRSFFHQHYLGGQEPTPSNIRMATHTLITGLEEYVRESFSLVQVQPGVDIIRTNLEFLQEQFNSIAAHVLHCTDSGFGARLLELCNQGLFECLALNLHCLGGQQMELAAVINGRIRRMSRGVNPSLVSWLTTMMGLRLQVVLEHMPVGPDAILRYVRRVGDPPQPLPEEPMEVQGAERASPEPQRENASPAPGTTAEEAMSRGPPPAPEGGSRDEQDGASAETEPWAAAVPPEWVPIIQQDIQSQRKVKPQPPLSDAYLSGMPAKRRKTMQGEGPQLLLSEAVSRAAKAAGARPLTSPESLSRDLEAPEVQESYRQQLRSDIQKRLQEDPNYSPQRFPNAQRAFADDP
UniProt O43765: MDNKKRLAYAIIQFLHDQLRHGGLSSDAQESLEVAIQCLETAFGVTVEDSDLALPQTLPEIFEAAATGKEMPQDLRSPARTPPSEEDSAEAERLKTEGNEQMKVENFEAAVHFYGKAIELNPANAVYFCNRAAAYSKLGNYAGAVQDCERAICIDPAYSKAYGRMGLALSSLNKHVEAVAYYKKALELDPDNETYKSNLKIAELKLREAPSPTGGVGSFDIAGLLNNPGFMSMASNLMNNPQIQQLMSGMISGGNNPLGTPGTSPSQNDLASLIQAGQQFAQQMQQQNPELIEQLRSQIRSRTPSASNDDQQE

A further assay deals with SGTA–V5 (UniProt O43765). The description is as above.
In another assay the target is HisTrx–SGTA (UniProt O43765). Nature of the assay: pull-down; OPG–TASK85 variant translated in reticulocyte lysate with 35S-methionine/cysteine in the presence of 2 µM HisTrx–SGTA or HisTrx; puromycin; Ni-NTA agarose in 50 mM HEPES-KOH pH 7.5, 300 mM NaCl, 50 mM imidazole, 10% glycerol, 2 h at 4°C; elution with 500 mM imidazole; phosphorimaging; only the target purified.

These are yes or no findings as the source states them, for the method shown. In cells and extracts the contact can be indirect. Some results given as binding are weak or reduced against the parent protein; the word gives no strength.

B1: OPG–TASK85 (domain or fragment, UniProt O14649 2-60)
chain: KRQNVRTLALIVVTFTYLLVGAAVFDALESEPELIERQRLELRQQELRARYNLSQGGYE
Consider B1, for which the binding result in the assay with BAG6–V5 and in the assay with SGTA–V5 was “binds” throughout.

B2: OPG–TASK85 (in-vitro-synthesised) (domain or fragment, UniProt O14649 2-60)
chain: B1 chain
modifications: 35S-methionine/cysteine label
On to B2, for which the binding result with HisTrx–SGTA is “binds”.

The values are drawn from publication PMC4215715.
